Consider one substance from paper PMC12220973.

Chains of the proteins cited; added tags and fusions are not shown.
UniProt P19474: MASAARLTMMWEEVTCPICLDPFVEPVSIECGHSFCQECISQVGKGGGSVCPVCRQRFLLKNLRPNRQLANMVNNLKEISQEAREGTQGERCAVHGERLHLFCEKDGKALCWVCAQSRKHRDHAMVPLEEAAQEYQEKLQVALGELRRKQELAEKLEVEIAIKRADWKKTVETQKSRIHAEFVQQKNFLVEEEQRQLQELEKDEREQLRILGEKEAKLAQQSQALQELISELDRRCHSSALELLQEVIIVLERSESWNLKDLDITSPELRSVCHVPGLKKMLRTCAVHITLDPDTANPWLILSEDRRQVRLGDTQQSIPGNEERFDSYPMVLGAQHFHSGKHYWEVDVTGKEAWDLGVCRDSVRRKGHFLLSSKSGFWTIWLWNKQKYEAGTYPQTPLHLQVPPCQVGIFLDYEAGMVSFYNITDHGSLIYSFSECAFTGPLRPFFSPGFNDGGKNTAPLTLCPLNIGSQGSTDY

Results are given in words; binding and its absence hold for the method and conditions named. Binding seen in cells or lysates may run through a third protein. Some binding calls cover weakened binding; strength is not graded here.

The target in the test is T1, PBX1 (human (endogenous in human glomerular MCs)) (UniProt P40424).
T1 sequence: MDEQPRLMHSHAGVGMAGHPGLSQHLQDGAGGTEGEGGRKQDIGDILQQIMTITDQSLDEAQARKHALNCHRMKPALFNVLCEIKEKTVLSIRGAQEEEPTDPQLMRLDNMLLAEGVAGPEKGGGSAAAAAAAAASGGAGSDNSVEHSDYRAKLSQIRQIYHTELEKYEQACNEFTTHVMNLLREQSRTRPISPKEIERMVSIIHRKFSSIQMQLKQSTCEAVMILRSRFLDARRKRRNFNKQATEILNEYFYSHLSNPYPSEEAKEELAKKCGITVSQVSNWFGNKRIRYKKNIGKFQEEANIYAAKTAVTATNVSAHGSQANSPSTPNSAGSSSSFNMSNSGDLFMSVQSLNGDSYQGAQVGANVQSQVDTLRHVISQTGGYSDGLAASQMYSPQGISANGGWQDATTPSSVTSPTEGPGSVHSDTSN
The test is described as follows: co-IP; endogenous PBX1 and TRIM21 in MCs stimulated with DNA-IC from SLE plasma (LN MCs) or IgG from healthy donors (HC MCs); also MCs with or without sodium L-lactate (30 mM, 1 day); detected by immunoblot.

As for “TRIM21 (from UniProt P19474 1-475) (enzyme)”, the binding entry is given as “binds”.
